# Laboratory results taken from the supplement of paper PMC10373366.
# Structures can show the parent of a compound that is named as a salt. The list shows a part of the results. Most values come without repeats; read them as rough.
# Tested on: patient-derived ovarian cancer cells (PDC)
# Assay: cell growth inhibition ratio vs untreated control (CCK8); higher = stronger inhibition of cell viability
# Settings: 10 µM; 48 h
# Method: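 Natural product library (Topscience) screened at 10 µM final concentration for 48 h on ovarian cancer A2780 cells and patient-derived ovarian cancer cells (PDC) in 96-well plates; viability read by CCK8 and reported as inhibition ratio (%) relative to untreated control. Single-dose primary screen.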
row,SMILES,cell growth inhibition ratio [%]
1,CC[C@]12CCCN3CCc4c(n(c5ccccc45)[C@@](O)(C(=O)OC)C1)[C@@H]32 [Vincamine],8.83
2,O=Cc1ccc(CO)o1 [5-Hydroxymethyl-2-furaldehyde],-2.69
3,Cc1[nH]ccc2c1[nH]c1cc(=O)ccc12 [Harmol],26.6
4,O=C1CCC[C@@H]2[C@H]3CCC[N+]4([O-])CCC[C@@H](CN12)[C@@H]34 (some centres undefined) [Oxymatrine],-19.5
5,COc1cc2c(cc1OC)[C@@H]1Cc3ccc(OC)c(OC)c3CN1CC2 [Tetrahydropalmatine hydrochloride],2.62
6,OCCc1ccc(O)cc1 [Tyrosol],3.69
7,O=c1cc(-c2ccccc2)oc2ccc(O)cc12 [6-Hydroxyflavone],-20
8,CC1(C)C2CCC1(C)C(O)C2 (centres undefined) [Borneol],7.96
9,O=C(O)c1cc(O)c2c(c1)[C@@H]([C@H]1c3cc(C(=O)O)cc(O)c3C(=O)c3c(O[C@@H]4O[C@H](CO)[C@@H](O)[C@H](O)[C@H]4O)cccc31)c1cccc(O[C@@H]3O[C@H](CO)[C@@H](O)[C@H](O)[C@H]3O)c1C2=O [Sennoside B],13.4
10,C=CCS[S+]([O-])CC=C (centres undefined) [Allicin],3.12
11,NC[C@H]1O[C@H](O[C@H]2[C@H](O)[C@@H](O[C@H]3O[C@H](CO)[C@@H](O)[C@H](N)[C@H]3O)[C@H](N)C[C@@H]2N)[C@H](N)C[C@@H]1O [Tobramycin],-7.7
12,COc1cc2ccc(=O)oc2cc1O [Scopoletin],13.2
13,Nc1nc(=O)c2nc(CNc3ccc(C(=O)N[C@@H](CCC(=O)O)C(=O)O)cc3)cnc2[nH]1 [Folic acid],-1.05
14,O=C(O)c1cc(O)c(O)c(O)c1 [Gallic acid],-3.9
15,COc1cc(O)cc(O)c1C(=O)/C=C/c1ccccc1 [Cardamoni],30.2
16,Cc1c(S(=O)(=O)O)oc2c1C(=O)C(=O)c1c-2ccc2c1CCCC2(C)C [Tanshinone IIA-sulfonic sodium],0.863
17,C[n+]1cc2c3c(ccc2c2ccc4cc5c(cc4c21)OCO5)OCO3 [Sanguinarine chloride],89.9
18,OC[C@@H](O)[C@@H](O)[C@@H](O)[C@@H](O)CO [Allitol],-13.3
19,C[C@@H]1O[C@@H](O[C@H]2[C@H](Oc3cc(O)c(C(=O)CCc4ccc(O)cc4)c(O)c3)O[C@H](CO)[C@@H](O)[C@@H]2O)[C@H](O)[C@H](O)[C@H]1O [Naringin dihydrochalcone],-10
20,O=c1c(O)c(-c2ccccc2)oc2ccccc12 [3-Hydroxyflavone],-14.3

row,SMILES,cell growth inhibition ratio [%]
1,COc1cc2ccc(=O)oc2cc1OC [Scoparone],-12.2
2,CCC(C)(C)C(=O)O[C@H]1C[C@@H](C)C=C2C=C[C@H](C)[C@H](CC[C@@H]3C[C@@H](O)CC(=O)O3)[C@H]21 [Simvastatin],-14.7
3,N[C@@H](Cc1ccc(O)c(O)c1)C(=O)O [Levodopa],8.32
4,C[C@@H]1O[C@@H](O[C@H]2[C@H](Oc3cc(O)c4c(=O)cc(-c5ccc(O)cc5)oc4c3)O[C@H](CO)[C@@H](O)[C@@H]2O)[C@H](O)[C@H](O)[C@H]1O [Rhoifolin],-0.348
5,Oc1cc(O)c2c(c1)O[C@H](c1ccc(O)c(O)c1)[C@@H](O)C2 [Cianidanol],2.54
6,CC1CCCCCCCCCCCCC(=O)C1 (centres undefined) [Muscone],5.37
7,CC(C)=C[C@H]1C[C@](C)(O)[C@@H]2[C@H]3CC[C@@H]4[C@@]5(C)CC[C@H](OC6OC[C@H](O)[C@H](O[C@@H]7O[C@H](CO[C@@H]8O[C@H](CO)[C@@H](O)[C@H](O)[C@H]8O)[C@@H](O)[C@H](O)[C@H]7O[C@@H]7OC[C@@H](O)[C@H](O)[C@H]7O)[C@H]6O[C@@H]6O[C@@H](C)[C@H](O)[C@@H](O)[C@H]6O)C(C)(C)[C@@H]5CC[C@@]4(C)C34CO[C@@]2(C4)O1 (some centres undefined) [Jujuboside A],0.262
8,CCOc1ccc(Cc2nccc3cc(OCC)c(OCC)cc23)cc1OCC [Ethaverine hydrochloride],22.8
9,CN1CC(=O)NC1=N [Creatinine],5.37
10,CC(C)c1cc(C(C)C)c(CC(=O)NS(=O)(=O)Oc2c(C(C)C)cccc2C(C)C)c(C(C)C)c1 [Avasimibe],-14.8
11,C=CC[C@@H]1/C=C(\C)C[C@H](C)C[C@H](OC)[C@H]2O[C@@](O)(C(=O)C(=O)N3CCCC[C@H]3C(=O)O[C@H](/C(C)=C/[C@@H]3CC[C@@H](O)[C@H](OC)C3)[C@H](C)[C@@H](O)CC1=O)[C@H](C)C[C@@H]2OC [Tacrolimus (FK506)],-8.97
12,COc1cc(C[C@H](C)[C@H](C)Cc2ccc3c(c2)OCO3)ccc1O [Anwuligan],-3.46
13,COC(=O)c1ccc(O)cc1 [Methyl 4-hydroxybenzoate],-6.76
14,CC1(C)CC[C@]2(C(=O)O)CC[C@]3(C)C(=CC[C@@H]4[C@@]5(C)CC[C@H](O)C(C)(C)[C@@H]5CC[C@]43C)[C@@H]2C1 [Oleanolic Acid],8.81
15,C[C@H]1[C@H](C)CC[C@]2(C(=O)O)CC[C@]3(C)C(=CC[C@@H]4[C@@]5(C)CCC(=O)C(C)(C)[C@@H]5CC[C@]43C)[C@H]12 [Ursonic Acid],5.62
16,COC1=C(OC)C(=O)C(C/C=C(\C)CC/C=C(\C)CC/C=C(\C)CC/C=C(\C)CC/C=C(\C)CC/C=C(\C)CC/C=C(\C)CC/C=C(\C)CC/C=C(\C)CCC=C(C)C)=C(C)C1=O [Coenzyme Q10 (CoQ10)],5.51
17,COc1ccc(-c2coc3cc(O)cc(O)c3c2=O)cc1 [Biochanin A],-4.52
18,CN[C@@H]1[C@H](O[C@H]2[C@H](O[C@H]3[C@H](O)[C@@H](O)[C@H](N=C(N)N)[C@@H](O)[C@@H]3N=C(N)N)O[C@@H](C)[C@]2(O)C=O)O[C@@H](CO)[C@H](O)[C@H]1O [Streptomycin sulfate],-6.53
19,Cc1ncc(C[n+]2csc(CCO)c2C)c(N)n1 [Thiamine hydrochloride],1.99

# Three structures already listed, arranged by molar mass, smallest number first.
row,SMILES,cell growth inhibition ratio [%]
6,OCCc1ccc(O)cc1 [Tyrosol],3.69
20,O=c1c(O)c(-c2ccccc2)oc2ccccc12 [3-Hydroxyflavone],-14.3
17,COc1ccc(-c2coc3cc(O)cc(O)c3c2=O)cc1 [Biochanin A],-4.52
